Record: PubChem BioAssay AID1508588 (Peter MacCallum Cancer Centre, 2020)
Purpose: 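Which gene losses make BRAF-mutant melanoma cells more responsive to vemurafenib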 (primary screen). System: human WM266.4 melanoma cells (BRAF V600 mutant). Knock-down reagent: siRNA pool against human genes, 40 nM. Timing: 96 h from transfection to read-out. Conditions: vemurafenib 300 nM (about IC25), added 48 h after transfection, for 48 h; comparison arm got DMSO vehicle only. Measured: 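Cell gain (DAPI nuclei at end minus before drug, mean of two replicates) and medium lactate by absorbance per cell, both as ratio to non-targeting siRNA, also grouped into fold-change classes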. Scale: cell gain with vemurafenib: higher = more cell gain than with non-targeting siRNA; lactate per cell with vemurafenib: higher = more lactate made per cell. Active means: 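a knock-down counts as enhancing when its fold-change classes with vehicle and with vemurafenib, taken together, show a stronger drug effect on cell gain or lactate per cell; exact class pairs not stated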. Meaning of the calls: active = enhances vemurafenib effect; inactive = no enhancement seen.
The whole screen tested about 18,000 reagents; this is an unselected part. 790 of them (4.4%) count as active. 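Calls rest on a combination of fold-change classes in drug and vehicle arms, not all shown here.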 Reagents against one gene are numbered here.

The opening 6 entries, to show the layout:
gene knocked down	reagent	cell gain with vemurafenib	lactate per cell with vemurafenib	call
CTNNB1	1	0.73	1.1	inactive
IL36RN	1	0.47	0.75	inactive
PRRG4	1	0.61	0.38	inactive
INPP5D	1	0.74	1.35	inactive
SOCS4	1	1.04	0.38	active
ARCN1	1	-0.14	0.99	inactive

The list itself, repeating the preview:
gene knocked down	reagent	cell gain with vemurafenib	lactate per cell with vemurafenib	call
CTNNB1	1	0.73	1.1	inactive
IL36RN	1	0.47	0.75	inactive
PRRG4	1	0.61	0.38	inactive
INPP5D	1	0.74	1.35	inactive
SOCS4	1	1.04	0.38	active
ARCN1	1	-0.14	0.99	inactive
APOC1	1	0.81	0.77	inactive
SLTM	1	1.11	0.57	inactive
GPR61	1	0.73	1.03	inactive
B4GALT6	1	0.76	0.62	inactive
TRIM74	1	0.84	0.82	inactive
FIG4	1	0.65	0.62	inactive
IGFBP4	1	1.09	0.6	inactive
ACSM3	1	0.6	0.9	inactive
FABP4	1	0.42	0.41	inactive
TAT	1	0.93	0.62	inactive
PSORS1C1	1	0.94	0.91	inactive
FAAH	1	0.75	0.44	active
LPGAT1	1	0.87	0.88	inactive
SLC41A2	1	0.2	1.85	inactive
PANX1	1	0.89	0.64	inactive
PIBF1	1	0.6	0.97	inactive
SEMA3B	1	0.34	1.23	inactive
IGLL1	1	0.22	2.58	inactive
ZP1	1	1.22	0.56	inactive
ZNF560	1	0.83	0.87	inactive
SCTR	1	0.59	2.38	inactive
MYH3	1	0.73	0.47	inactive
GRAP2	1	0.82	0.8	inactive
CD63	1	0.99	0.98	inactive
CCDC9	1	0.31	0.76	inactive
DPYSL4	1	1.19	0.8	inactive
NBPF14	1	0.55	1.54	inactive
HNRNPH1	1	0.63	0.64	inactive
ITPRIPL2	1	0.53	0.56	inactive
TRIM69	1	0.35	1.7	inactive
BBX	1	0.14	1.98	inactive
SH3BGRL	1	0.65	0.64	inactive
WNT9B	1	0.64	1.3	inactive
TRIM38	1	0.49	1.25	inactive
FOXN2	1	0.93	0.65	inactive
FARP2	1	0.6	0.38	inactive
SP3	1	0.13	2.35	inactive
TPD52L3	1	0.51	1.05	inactive
LUM	1	0.52	0.84	inactive
TGIF2	1	0.72	0.88	inactive
VCPKMT	1	0.85	0.8	inactive
ZCCHC2	1	0.21	1.14	inactive
NSUN5P1	1	0.13	1.26	inactive
GPR180	1	0.41	1.04	inactive
SLC34A1	1	0.63	1.25	inactive
ARHGEF15	1	0.89	0.68	inactive
MED10	1	0.73	0.72	inactive
RANBP2	1	0.51	0.6	inactive
DHDH	1	0.59	0.76	inactive
GFRA4	1	0.71	0.46	active
WDR25	1	0.42	1.02	inactive
PYGO1	1	0.35	0.88	inactive
RBPMS	1	0.11	1.15	inactive
SLC7A10	1	0.78	0.58	inactive
PRDM16	1	0.65	1.02	inactive
SS18L2	1	0.22	1.64	inactive
PIP5K1B	1	0.87	0.67	inactive
SACK1A	1	0.1	2.95	inactive
UBTFL7	1	0.55	0.58	inactive
EZH2	1	0.71	0.8	inactive
CLXN	1	0.85	0.74	inactive
USP5	1	0.64	1.1	inactive
UBE2S	1	0.82	0.59	inactive
LY6G6C	1	0.64	1.49	inactive
ZIC5	1	0.9	1.12	inactive
DUSP2	1	0.53	0.77	inactive
MRPL45	1	0.59	0.97	inactive
ERI2	1	0.8	0.87	inactive
TSNARE1	1	0.51	0.86	inactive
LGMN	1	0.43	0.83	inactive
AP2A2	1	0.11	0.24	inactive
SAT2	1	0.91	0.88	inactive
ARHGAP27	1	0.59	1.02	inactive
ARHGAP27	2	0.87	1.79	inactive
ALKBH5	1	0.03	2.01	inactive
SP140L	1	0.96	0.38	inactive
METTL16	1	0.47	1.01	inactive
SNX20	1	0.62	1.68	inactive
